Measured values taken from patent publication US4558058A, “Substituted 1,4-dihydropyridines and their use as medicaments” (Cassella Aktiengesellschaft, priority 1982, dated 1985).

System: helical strips of pulmonary artery of guinea pigs
Test: calcium-antagonistic action: inhibition of CaCl2-induced contraction of potassium-depolarised helical strips of pulmonary artery
Format: cell-based
Conditions: Cavia porcellus; guinea pig pulmonary artery strips, calcium-free Tyrode's solution, 40 mmol potassium, 0.5 mmol CaCl2; mean value from 4 to 6 strips; read-out: IC50 (concentration of the test substance which inhibits contraction by 50%)
Method: This entailed helical strips of pulmonary artery of guinea pigs being equilibrated in calcium-free Tyrode's solution and depolarised with 40 mmol of potassium. Addition of 0.5 mmol of CaCl2 then initiates contraction. The relaxant action of the test substance is determined by cumulative addition of concentrations increasing in steps of 1/2 log 10.

IC50: 3 nM
SMILES: COC(=O)C1=C(C)NC(C)=C(C(=O)OC)C1c1ccccc1[N+](=O)[O-] [nifedipine, dimethyl 1,4-dihydro-2,6-dimethyl-4-(2-nitrophenyl)pyridine-3,5-dicarboxylate, reference compound]
